# Assay results reported in the supplement of paper PMC7024190.
# Some of the results follow. This data set is noisy: repeats of one test often differ as much as different tests do.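 A first-round screen of about ten thousand compounds sought those raising reporter output, using human embryonic kidney cells briefly transfected with a plasmid carrying a Renilla luciferase gene driven by the HSV-TK promoter.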
# System: HEK 293FT
# Assay: log relative Renilla luciferase luminescence (reporter expression vs reference, reference not stated) (log (base not stated)); higher = higher recombinant reporter expression
# Settings: 10 µM; time after transfection 48 h
# Method: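 HEK 293FT cells transiently transfected with pRL-TK (Renilla luciferase) were treated with compounds at 10 uM and luminescence was read about 42 h later. Values are log relative Renilla luminescence (log base and reference not stated). Single-pass screen; 2080 natural products library.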
row,Structure (SMILES),log
1,"COC(=O)C1=CO[C@@H](C)[C@H]2C[N+]3([O-])CCc4c([nH]c5ccccc45)[C@@H]3C[C@H]12 (some centres undefined) [4,R-ajmalicine N-oxide]",-0.174
2,COc1cc(C[C@@H](CO)c2cc(/C=C/CO)cc(OC)c2O[C@@H]2O[C@H](CO)[C@@H](O)[C@H](O)[C@H]2O)ccc1O [Icariside E5],0.0279
3,Cc1cccc2c3c(ccc12)C(=O)C(=O)C1=C3OC[C@H]1C [Dihydroisotanshinone II],-0.357
4,"CC(C)=CCc1c(O)cc(O)c2c(=O)c3cccc(O)c3oc12 [1,3,5-Trihydroxy-4-prenylxanthone]",-0.0849
5,C[C@@H]1O[C@@H](Oc2cc(O)c3c(=O)c(O[C@@H]4O[C@@H](C)[C@H](O)[C@@H](O)[C@H]4O)c(-c4ccc(O)cc4)oc3c2)[C@H](O)[C@H](O)[C@H]1O [Kaempferitrin],9.38e-05
6,COc1c(O)cc(-c2oc3cc(O)cc(O)c3c(=O)c2O[C@@H]2O[C@@H](C)[C@H](O)[C@@H](O)[C@H]2O)cc1O [Mearnsitrin],-0.435
7,C=CC(C)(C)c1c(O)cc(O)c2c(=O)c3c(CC=C(C)C)c(O)c(O)cc3oc12 [Cudratricusxanthone A],-1.39
8,COc1cc(O)c2c(c1)O[C@H](c1ccc(O)cc1)CC2=O [Sakuranetin],0.142
9,C=C(C(=O)O)[C@@H]1CC[C@@]2(C)CCC[C@@](C)(O)[C@@H]2C1 [Ilicic acid],0.116
10,CC(C)=C1CC[C@]2(C)CCC[C@](C)(O)[C@H]2C1 [enantio-7(11)-Eudesmen-4-ol],0.075
11,CCOC(/C=C/c1ccccc1)=C1\C(=O)C=C(OC)C1=O [Ethyllucidone],0.0912
12,CC1(C)C=Cc2c(cc3occ(-c4ccc(O)cc4)c(=O)c3c2O)O1 [Alpinumisoflavone],0.0141
13,O=C(OC1C=C(CO)C2C(OC3OC(CO)C(O)C(O)C3O)OC=CC12)c1ccc(O)cc1 (centres undefined) [6-O-p-Hydroxybenzoylaucubin],-0.0114
14,COc1cc([C@H](O)[C@@H](O)CO)cc(OC)c1O [threo-1-C-Syringylglycerol],0.0594
15,COC(=O)C1=CC[C@@]23CC[C@@H]([C@@](C)(/C=C/C=C(\C)C(=O)OC)OC2=O)[C@@]3(OC(C)=O)CC1 [Methylpseudolarate B],-0.48
16,COC(=O)C1=CO[C@@H](C)[C@@H]2CN3CCc4c([nH]c5ccc(OC)cc45)[C@@H]3C[C@H]12 [Aricine],0.152
17,"CC(C)=C1CC2OC2(C)CCC2OC2(C)CC1=O (centres undefined) [1,10:4,5-Diepoxy-7(11)-germacren-8-one]",-0.205
18,CC[C@H](/C=C/[C@@H](C)[C@H]1CC[C@H]2[C@@H]3CC=C4C[C@@H](O)CC[C@]4(C)[C@H]3CC[C@]12C)C(C)C [Stigmasterol],-0.0384
19,O=C(O)/C=C/C(=O)O [Fumaric acid],-0.152
20,O=C1c2c(O)cc(O)cc2O[C@H](c2cc(O)c(O)c(O)c2)[C@H]1O [Ampelopsin],-0.0332
21,O=c1cc(-c2ccccc2)oc2cc(O)cc(O)c12 [Chrysin],-0.102
22,CC(=O)O[C@H]1[C@H](OC(C)=O)[C@]2(C)O[C@]3(CC[C@]2(C)[C@H]2[C@H](OC(=O)c4cccnc4)CC=C(C)[C@]12C)COC(=O)C3 [Scutebata F],0.122
23,COc1ccc(C[C@H]2C(=O)OC[C@@H]2[C@@H](O)c2ccc(OC)c(OC)c2)cc1OC [Tupichilignan A],0.142
24,"C/C(=C\C(=O)C[C@@H](C)[C@H]1CC[C@@]2(C)[C@@H]3CC[C@H]4C(C)(C)C(=O)CC[C@@]45C[C@@]35CC[C@]12C)C(=O)O [3,23-dioxo-9,19-Cyclolanost-24-en-26-oic acid]",-0.129
25,CC(=O)c1ccc(O)cc1 [4'-Hydroxyacetophenone],-0.0581
26,CC1=CC(=O)CC(C)(C)[C@@]1(O)/C=C/[C@H](O)CO [Cucumegastigmane I],-0.0169
27,COc1cc(OC)c2ccc(=O)oc2c1CC=C(C)C [Coumurrayin],0.158
28,CC[C@@H](CC[C@@H](C)[C@H]1CC[C@H]2[C@@H]3C(=O)C=C4C[C@@H](O)CC[C@]4(C)[C@H]3CC[C@]12C)C(C)C [3beta-Hydroxyporiferast-5-en-7-one],0.075
29,CC1(C)[C@H](O)CC[C@@]2(C)[C@@H]3CC[C@](C)([C@@H](O)CO)C=C3CC[C@H]12 [Darutigenol],-0.155

# Pulled by compound from the list above (2):
row,Structure (SMILES),log
18,CC[C@H](/C=C/[C@@H](C)[C@H]1CC[C@H]2[C@@H]3CC=C4C[C@@H](O)CC[C@]4(C)[C@H]3CC[C@]12C)C(C)C [Stigmasterol],-0.0384
22,CC(=O)O[C@H]1[C@H](OC(C)=O)[C@]2(C)O[C@]3(CC[C@]2(C)[C@H]2[C@H](OC(=O)c4cccnc4)CC=C(C)[C@]12C)COC(=O)C3 [Scutebata F],0.122
